Where a chain is given by its changes, count along the chain named. For at least one entry, the source does not settle the construct or the ends of the probe. For some assays here: Negatives hold for the conditions tested. At least one verdict was read from the data and is not stated in words by the source. Protein sequences can lack the tags named with them.
Key:
Assay in all cases: EMSA
Conditions in all cases: EMSA binding buffer not given (as in cited work), 8% native PAGE, phosphorylation pretreatment 50 mM acetyl phosphate, 50 mM Tris-Cl pH 8.0, 5 mM MgCl2, 30 min 30 C, recombinant protein, protein details: 6xHis, label: biotin
[1] = molecular target: T1, MtrA D53N (Streptomyces venezuelae 10712) (UniProt F2R521)
T1 sequence (looked up, limits assumed): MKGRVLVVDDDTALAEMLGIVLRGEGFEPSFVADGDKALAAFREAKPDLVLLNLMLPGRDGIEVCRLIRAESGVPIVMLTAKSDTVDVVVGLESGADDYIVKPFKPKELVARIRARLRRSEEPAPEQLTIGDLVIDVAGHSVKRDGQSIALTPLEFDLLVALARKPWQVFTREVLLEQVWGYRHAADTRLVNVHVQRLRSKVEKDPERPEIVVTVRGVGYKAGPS

[2] = molecular target: T2, MtrA D53E (Streptomyces venezuelae 10712) (UniProt F2R521)
T2 sequence (looked up, limits assumed): T1 sequence (looked up, limits assumed) with N53E

[3] = molecular target: T3, MtrA D53A (Streptomyces venezuelae 10712) (UniProt F2R521)
T3 sequence (looked up, limits assumed): T1 sequence (looked up, limits assumed) with N53A

[4] = molecular target: T4, MtrA (MtrASVE) (Streptomyces venezuelae 10712) (UniProt F2R521)
T4 sequence (looked up, limits assumed): T1 sequence (looked up, limits assumed) with N53D

[5] = up to 8.3 uM, no or only very weak shift
[6] = pretreated with 50 mM acetyl phosphate, 5 mM MgCl2, 1.2-2.4 uM

Sequence | binding result [1, 5] | binding result [2, 5] | binding result [3, 5] | binding result ([4]; 4.7 and 8.3 uM protein) | binding result [1, 6] | binding result [2, 6] | binding result [3, 6] | binding result ([4]; no acetyl phosphate, 0.6-2.4 uM) | binding result ([4]; pretreated with 50 mM acetyl phosphate (MtrA-P), 5 mM MgCl2, binding enhanced, 0.6-2.4 uM)
ACACTCCTTCTCCGCGCCGGGGGTGTCCAAGTCGTTAGACACGGCGTTCCGGGCGTTGC (double strand) [cmlN-1 probe (SVEN0915/16 WT)] | no binding | no binding | no binding | binds |  |  |  |  | 
AGGAAAGCTGAGTAACACGGGGTTCACATTCGGGCAACCGACGGGAAATCCCGTGTTGC (double strand) [glnII probe (SVEN1874 WT)] | no binding | no binding | no binding | binds |  |  |  |  | 
CATGAGATCGCAAAGCCGCAGTTAACGAGCCGGAAAAACTTCCGCCCTAACGTGCAATG (double strand) [ureA probe (SVEN0835 WT)] |  |  |  |  | no binding | no binding | no binding | binds | binds
CCCACCCCGGTTAACTTCGACGAAACAATTGGGTCATGCTTGAGAAATCCCGTCTGCCT (double strand) [glnA probe (SVEN1863 WT)] | no binding | no binding | no binding | binds |  |  |  |  | 
CCGGCCGTTCACGGTCGCGTAACACGCCCCACCCCTTCGTCACGGCTCCGAAACATCGA (double strand) [amtB probe (SVEN5279 WT)] | no binding | no binding | no binding | binds |  |  |  |  | 
GCTCTCGCGCCCTGAGAGCTTTTGTTCATCCATCCGTAACAACGGTCGGAAAACGCAAA (double strand) [glnR probe (SVEN3917 WT)] | no binding | no binding | no binding | binds |  |  |  |  | 
TGCGATTTCAATCATCACGATGTCAACTCCGTGTCAAATTTTCGTTGCACGACTCTCGG (double strand) [jadR1-R2 probe (SVEN5972/73 WT)] | no binding | no binding | no binding | binds |  |  |  |  | 
